Drawing on PubChem BioAssay AID248 (DTP/NCI, 2004), this text covers survivor count and T/C for 23 compounds.

The subject of the assay is L1210 leukemia ip in BDF1 mice, survival T/C. Kind of assay: NCI In Vivo Anticancer Drug Screen. Data for tumor model L1210 Leukemia (intraperitoneal) in B6D2F1 (BDF1) mice. The settings on record: T/C endpoint: mean survival time, higher T/C = longer survival.
[1] abbreviates: dose: 200.0 mg/kg/injection, schedule: Q01DX009 (ip), vehicle: saline with Tween-80.
The mark [2] stands for this setting: dose: 400.0 mg/kg/injection, schedule: Q01DX009 (ip), vehicle: saline with Tween-80.
[3] abbreviates: dose: 400.0 mg/kg/injection, schedule: Q01DX001 (ip), vehicle: Klucel (hydroxypropylcellulose) (HPC).
Setting [4] is: dose: 50.0 mg/kg/injection, schedule: Q01DX001 (ip), vehicle: carboxymethylcellulose (CMC).
Where [5] appears, read: dose: 100.0 mg/kg/injection, schedule: Q01DX001 (ip), vehicle: carboxymethylcellulose (CMC).
Where [6] appears, read: dose: 400.0 mg/kg/injection, schedule: Q01DX001 (ip), vehicle: carboxymethylcellulose (CMC).
Where [7] appears, read: dose: 400.0 mg/kg/injection, schedule: Q04DX003 (ip), vehicle: saline.
The mark [8] stands for this setting: dose: 100.0 mg/kg/injection, schedule: Q01DX009 (ip), vehicle: saline with Tween-80.
The mark [9] stands for this setting: dose: 100.0 mg/kg/injection, schedule: Q01DX009 (ip), vehicle: saline.
Setting [10] is: dose: 200.0 mg/kg/injection, schedule: Q01DX009 (ip), vehicle: saline.
[11] abbreviates: dose: 400.0 mg/kg/injection, schedule: Q04DX003 (ip), vehicle: Klucel (hydroxypropylcellulose) (HPC).
[12] abbreviates: dose: 100.0 mg/kg/injection, schedule: Q04DX003 (ip), vehicle: saline with Tween-80.
Setting [13] is: dose: 200.0 mg/kg/injection, schedule: Q04DX003 (ip), vehicle: saline with Tween-80.
[14] abbreviates: dose: 25.0 mg/kg/injection, schedule: Q04DX003 (ip), vehicle: saline.
The mark [15] stands for this setting: dose: 150.0 mg/kg/injection, schedule: Q01DX001 (ip), vehicle: saline.
Setting [16] is: dose: 300.0 mg/kg/injection, schedule: Q01DX001 (ip), vehicle: saline.
[17] abbreviates: dose: 200.0 mg/kg/injection, schedule: Q01DX001 (ip), vehicle: carboxymethylcellulose (CMC).

The list does not hold the whole screen: it gathers tests that were run many times, whatever their T/C, doses with no T/C, and many T/C values between a quarter and a half above the control. Further doses and runs are listed elsewhere. T/C gives the treated animals as a percentage of the vehicle group. Some entries give survivors of the animals treated and no T/C: the source holds a T/C of zero for them, seemingly a mark for toxic or unscored doses. Some survivor counts are full or nearly so, which does not show that the dose was tolerated: survival well below the control is almost never listed, so the zero probably covers shortened survival too. Counts of survivors are from the toxicity check (mostly the fifth day) where no day follows; animals may have died later. Schedule codes are those of the source, taken here to give the interval after Q, in days (D) or hours (H), and the number of doses after X. Some molecules as drawn cover several salts, stereoisomers or complexes of the source; a dose is that of the sample tested. Where survival is the endpoint, the PubChem record calls one and a half times the control and up active, and a quarter to a half above the control has no call in these data; cut-offs in other NCI protocols can differ. Some T/C values are followed by the survivors on the day toxicity was checked, most often the fifth; without a count, all were alive then. Some entries hold several experiments; the results are listed from low to high.

On to `O=C1NC(=O)C2C3OC(C(Cl)C3Cl)C12` (stereo unspecified), for which the survivor count is given as 1 of 3 (dose: 100.0 mg/kg/injection, schedule: Q04DX002 (ip), vehicle: Klucel (hydroxypropylcellulose) (HPC)); 1 of 6 (dose: 150.0 mg/kg/injection, schedule: Q01DX009 (ip), vehicle: carboxymethylcellulose (CMC)); 0 of 3 (dose: 200.0 mg/kg/injection, schedule: Q04DX002 (ip), vehicle: Klucel (hydroxypropylcellulose) (HPC)); 0 of 6 (dose: 300.0 mg/kg/injection, schedule: Q01DX009 (ip), vehicle: carboxymethylcellulose (CMC)); 0 of 3 (dose: 400.0 mg/kg/injection, schedule: Q04DX002 (ip), vehicle: Klucel (hydroxypropylcellulose) (HPC)).

On to `C(=N\Nc1nn[nH]n1)/c1ccccc1`, for which the survivor count under setting [1] was 3 of 6 and the survivor count under setting [2] was 2 of 6.

On to `CS(=O)Cc1cccc2ccccc12` (stereo unspecified), for which the survivor count under setting [3] is 0 of 6.

For `CCOC(C)c1ccccc1` (stereo unspecified), the survivor count is recorded as 4 of 4 under setting [4], 4 of 4 under setting [5] and 4 of 4 under setting [6].

For the compound `CCCCOC(=O)CC1CCCN1C` (stereo unspecified), the survivor count under setting [7] was 1 of 6.

With `O=C1CCCCC1(O)C[N+](=O)[O-]` (stereo unspecified), the survivor count by setting is: (dose: 150.0 mg/kg/injection, schedule: Q01DX001 (ip), vehicle: carboxymethylcellulose (CMC)) 1 of 6; (dose: 300.0 mg/kg/injection, schedule: Q01DX001 (ip), vehicle: carboxymethylcellulose (CMC)) 1 of 6.

In the case of `COc1ccc(C)cc1NC(=O)Nc1cc(Cl)ccc1C`, the survivor count (dose: 400.0 mg/kg/injection, schedule: Q01DX001 (ip), vehicle: saline with Tween-80) was 2 of 6.

On to `COc1cc(/C=C2\NC(=O)NC2=O)ccc1O`, for which the survivor count under setting [8] is on record as 6 of 6.

Take `Nc1nc2nc3c(nc2c(=O)[nH]1)C(=O)N(c1ccc(C(=O)O)cc1)C3`: the survivor count under setting [9] was 6 of 6; the survivor count under setting [10] is recorded as 3 of 6; the survivor count (dose: 400.0 mg/kg/injection, schedule: Q01DX001 (ip), vehicle: saline) is reported as 2 of 3; the survivor count (dose: 400.0 mg/kg/injection, schedule: Q01DX009 (ip), vehicle: saline) is listed as 0 of 6.

Regarding `CCN1C(C)C1C(C)C` (stereo unspecified), the survivor count (dose: 200.0 mg/kg/injection, schedule: Q04DX003 (ip), vehicle: Klucel (hydroxypropylcellulose) (HPC)) is reported as 1 of 6 and the survivor count under setting [11] was 0 of 6.

Take `Cc1c(N)cccc1N`: the survivor count is, setting by setting: (dose: 50.0 mg/kg/injection, schedule: Q01DX009 (ip), vehicle: saline with Tween-80) 1 of 6; under setting [12], 1 of 6; under setting [13], 0 of 6; (dose: 400.0 mg/kg/injection, schedule: Q04DX003 (ip), vehicle: saline with Tween-80) 0 of 6.

As to `CCN(CCO)c1ccc(N)cc1C`, the survivor count under setting [14] is listed as 6 of 6.

In the case of `CCC([N+](=O)[O-])S(=O)(=O)c1ccc(C)cc1` (stereo unspecified), the survivor count under setting [9] is on record as 6 of 6.

As for `CN1CCCC(C)(CN2c3ccccc3Sc3ccccc32)C1` (stereo unspecified), under setting [7], the survivor count is 3 of 6.

For `Nc1ncc(-c2ccc(CNc3ccc(C(=O)NC(CC(=O)O)CC(=O)O)cc3)cc2)c(N)n1`, the T/C (dose: 25.0 mg/kg/injection, schedule: Q01DX009 (ip), vehicle: saline) was 138 % of control; the T/C (dose: 30.0 mg/kg/injection, schedule: Q01DX009 (ip), vehicle: saline) is 140 % of control; the T/C (dose: 33.0 mg/kg/injection, schedule: Q01DX009 (ip), vehicle: saline) is 144 % of control; the T/C (dose: 50.0 mg/kg/injection, schedule: Q01DX009 (ip), vehicle: saline) was 131 % of control; the T/C (dose: 100.0 mg/kg/injection, schedule: Q01DX001 (ip), vehicle: saline) was 125 % of control; the T/C under setting [15] is 125 and 138 % of control [5 of 6 alive]. In addition, the T/C (dose: 225.0 mg/kg/injection, schedule: Q01DX001 (ip), vehicle: saline) was 128 % of control [4 of 6 alive]. For the same compound, the survivor count under setting [9] is on record as 6 of 6, the survivor count under setting [10] was 0 of 6 and the survivor count under setting [16] is 1 of 6.

As for `CSc1ccnc2n[nH]nc12`, the survivor count is, setting by setting: under setting [3], 1 of 6; under setting [11], 1 of 6.

Take `C#CCSC(=N)N`: the survivor count runs as follows: under setting [9], 0 of 6; (dose: 200.0 mg/kg/injection, schedule: Q04DX003 (ip), vehicle: saline) 0 of 6; under setting [7], 0 of 6.

In the case of `CC(C)Sc1ncnc2nc[nH]c12`, the T/C (dose: 90.0 mg/kg/injection, schedule: Q01DX009 (ip), vehicle: saline with Tween-80) was 134 % of control; the T/C (dose: 135.0 mg/kg/injection, schedule: Q01DX009 (ip), vehicle: saline with Tween-80) was 141 % of control; the T/C (dose: 150.0 mg/kg/injection, schedule: Q01DX001 (sc), vehicle: steroid suspending solution) is 128 % of control; the T/C (dose: 300.0 mg/kg/injection, schedule: Q01DX001 (sc), vehicle: steroid suspending solution) is 141 % of control. Besides, the survivor count is on record as 4 of 6 (dose: 200.0 mg/kg/injection, schedule: Q01DX009 (sc), vehicle: steroid suspending solution); 4 of 6 (dose: 400.0 mg/kg/injection, schedule: Q01DX009 (sc), vehicle: steroid suspending solution); 3 of 6 (dose: 800.0 mg/kg/injection, schedule: Q01DX009 (sc), vehicle: steroid suspending solution).

As to `CC(CN(C)C)CN1c2ccccc2Sc2ccccc21` (stereo unspecified), the T/C runs as follows: under setting [14], 128 % of control; (dose: 50.0 mg/kg/injection, schedule: Q04DX003 (ip), vehicle: saline with Tween-80) 136 % of control. In addition, the survivor count by setting is: (dose: 50.0 mg/kg/injection, schedule: Q04DX003 (ip), vehicle: saline) 4 of 6; under setting [12], 6 of 6; (dose: 100.0 mg/kg/injection, schedule: Q04DX003 (ip), vehicle: saline) 0 of 6; under setting [13], 3 of 6.

As for `O=[N+]([O-])c1ccc(-c2cccc3ccccc23)c([N+](=O)[O-])c1`, the survivor count under setting [17] is 4 of 4.

For `CCC(=O)Oc1ccc(C(=O)O)cc1`, the survivor count by setting is: under setting [8], 0 of 6; under setting [1], 0 of 6; under setting [2], 0 of 6.

As to `[Cu+2].[NH-]C(CC(=O)O)C(=O)O.[NH-]C(CC(=O)O)C(=O)O` (stereo unspecified), the survivor count is on record as 0 of 6 (dose: 75.0 mg/kg/injection, schedule: Q01DX001 (ip), vehicle: saline); 1 of 6 (dose: 80.0 mg/kg/injection, schedule: Q01DX001 (ip), vehicle: saline); 0 of 6 under setting [15]; 0 of 6 under setting [16].

Take `C[P+]1(c2ccccc2)C2C=CC=CC1C=C2` (stereo unspecified): the survivor count runs as follows: (dose: 40.0 mg/kg/injection, schedule: Q01DX001 (ip), vehicle: carboxymethylcellulose (CMC)) 0 of 6; under setting [4], 1 of 4; (dose: 80.0 mg/kg/injection, schedule: Q01DX001 (ip), vehicle: carboxymethylcellulose (CMC)) 0 of 6; under setting [5], 0 of 4; under setting [17], 0 of 4; under setting [6], 0 of 4.
